Results are given in words; binding and its absence hold for the method and conditions named. In cells and extracts the contact can be indirect. These calls come from enrichment with a bait or labelling near it, and not all partners need be listed.
Target: FLAG-TRIM47 (human) (UniProt Q96LD4)
Assay: affinity purification with mass spectrometry; HEK293T transfected with FLAG-TRIM47 for 48 h; cell extracts immunoprecipitated with anti-FLAG antibody or control IgG; eluted proteins analysed by LC-MS

The chains behind the UniProt entries cited, without tags or fusion partners.
UniProt Q96LD4: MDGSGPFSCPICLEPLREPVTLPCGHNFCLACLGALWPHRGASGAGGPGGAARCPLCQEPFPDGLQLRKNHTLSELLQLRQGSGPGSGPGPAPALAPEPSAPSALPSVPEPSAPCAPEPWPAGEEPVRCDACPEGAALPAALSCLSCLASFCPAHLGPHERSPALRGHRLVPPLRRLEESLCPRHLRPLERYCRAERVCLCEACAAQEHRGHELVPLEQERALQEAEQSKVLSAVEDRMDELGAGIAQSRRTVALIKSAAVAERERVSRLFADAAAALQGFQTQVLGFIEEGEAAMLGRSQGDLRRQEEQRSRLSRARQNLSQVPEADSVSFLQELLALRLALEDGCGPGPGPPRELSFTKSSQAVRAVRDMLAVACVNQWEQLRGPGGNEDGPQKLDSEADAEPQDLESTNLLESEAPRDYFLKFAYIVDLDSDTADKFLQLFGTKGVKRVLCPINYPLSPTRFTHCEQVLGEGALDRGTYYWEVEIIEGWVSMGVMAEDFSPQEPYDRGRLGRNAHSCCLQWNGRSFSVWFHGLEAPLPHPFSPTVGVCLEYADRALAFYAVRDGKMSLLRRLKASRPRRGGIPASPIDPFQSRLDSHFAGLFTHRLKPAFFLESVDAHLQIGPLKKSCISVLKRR
UniProt Q96SW2: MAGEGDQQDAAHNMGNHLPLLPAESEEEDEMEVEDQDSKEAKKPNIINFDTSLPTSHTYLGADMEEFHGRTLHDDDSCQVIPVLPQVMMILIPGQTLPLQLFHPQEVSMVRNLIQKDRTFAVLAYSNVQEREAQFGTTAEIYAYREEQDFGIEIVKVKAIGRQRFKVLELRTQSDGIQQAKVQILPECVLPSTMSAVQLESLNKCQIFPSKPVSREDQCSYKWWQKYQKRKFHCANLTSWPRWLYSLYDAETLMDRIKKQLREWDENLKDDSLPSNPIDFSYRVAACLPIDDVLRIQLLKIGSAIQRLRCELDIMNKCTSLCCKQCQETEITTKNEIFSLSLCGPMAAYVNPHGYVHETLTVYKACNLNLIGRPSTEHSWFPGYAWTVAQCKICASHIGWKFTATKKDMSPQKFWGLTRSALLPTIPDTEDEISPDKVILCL

Substance	binding
CRBN (endogenous, HEK293T) (from UniProt Q96SW2 1-442)	binds
TP53 (endogenous, HEK293T) (from UniProt P04637 1-393)	binds

Source: PMC11579460
